Data reported in PubChem BioAssay AID1445 (SRMLSC, 2008).
In all, about 220,000 compounds went through this assay and about 910 (0.41%) were called active. The inconclusive results got no clear call from the source; some entries with a clear call stand among them for comparison.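 How the source made its calls: active means primary inhibition above the hit cutoff, then over 50% inhibition at one or more dose response concentrations (cut at about 23% in these data, passing the limit was not always enough); inconclusive means conflicting primary data, or primary hits not chosen for dose response; inactive means low primary inhibition, or under 50% at every dose.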

By UniProt entry, the sequences of proteins in these tests, tags left out. Where a name states a change or a piece, a line headed by the entry shows the natural chain unless it says otherwise.
UniProt O96935: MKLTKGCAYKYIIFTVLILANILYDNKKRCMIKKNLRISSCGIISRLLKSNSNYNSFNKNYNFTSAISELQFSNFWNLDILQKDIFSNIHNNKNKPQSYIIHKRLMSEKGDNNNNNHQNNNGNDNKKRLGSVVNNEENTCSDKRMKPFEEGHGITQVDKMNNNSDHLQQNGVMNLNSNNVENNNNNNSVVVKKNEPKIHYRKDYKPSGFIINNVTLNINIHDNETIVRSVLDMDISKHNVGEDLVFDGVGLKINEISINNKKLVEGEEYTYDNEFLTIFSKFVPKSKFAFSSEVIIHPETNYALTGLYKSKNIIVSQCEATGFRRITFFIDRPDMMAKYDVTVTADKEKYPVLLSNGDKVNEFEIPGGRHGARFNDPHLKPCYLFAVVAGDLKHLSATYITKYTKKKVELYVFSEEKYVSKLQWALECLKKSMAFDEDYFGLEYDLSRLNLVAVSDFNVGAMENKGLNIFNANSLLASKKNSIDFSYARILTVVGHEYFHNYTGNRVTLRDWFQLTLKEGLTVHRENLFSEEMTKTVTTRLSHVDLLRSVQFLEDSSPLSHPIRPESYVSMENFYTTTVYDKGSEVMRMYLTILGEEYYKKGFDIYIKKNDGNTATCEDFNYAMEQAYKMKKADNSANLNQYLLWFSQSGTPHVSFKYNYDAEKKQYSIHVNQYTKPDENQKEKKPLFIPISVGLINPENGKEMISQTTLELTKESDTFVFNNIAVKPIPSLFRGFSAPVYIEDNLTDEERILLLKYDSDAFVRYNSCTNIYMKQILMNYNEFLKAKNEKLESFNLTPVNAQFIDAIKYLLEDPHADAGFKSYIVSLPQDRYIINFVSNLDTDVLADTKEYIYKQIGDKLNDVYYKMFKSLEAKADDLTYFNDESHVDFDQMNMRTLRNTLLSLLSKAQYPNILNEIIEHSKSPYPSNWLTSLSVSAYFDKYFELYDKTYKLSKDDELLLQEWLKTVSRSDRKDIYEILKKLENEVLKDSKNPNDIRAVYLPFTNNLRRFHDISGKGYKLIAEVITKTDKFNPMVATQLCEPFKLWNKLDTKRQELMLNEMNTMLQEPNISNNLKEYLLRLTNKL

The compounds below were run against Aminopeptidase N (Plasmodium falciparum (isolate 3D7)) (UniProt O96935) (assay: P. falciparum M1AAP inhibitors, biochemical, fluorogenic H-Leu-NHMec substrate, 1536-well (AID 1445;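 further: plate controls were DMSO full reaction for no effect and no enzyme background for full effect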)). Conditions: recombinant M1AAP, H-Leu-NHMec fluorogenic kinetic assay; at 30 µM, hits give high values unless noted.
In the case of `O=C(/C=C/c1ccccc1)NC(=S)NNS(=O)(=O)c1ccccc1`, the inhibition is reported as inconclusive: 27.9%. For `COc1cc(C(N)=O)cc(Br)c1OC`, the inhibition was active: 23.4%. In the case of `CC(C)CCNC(=O)CN(Cc1ccc2c(c1)OCO2)C(=O)CCC(=O)Nc1ccccn1`, the inhibition is reported as inconclusive: 23.3%. In the case of `N#Cc1c(-c2ccccc2)nc(SCC(=O)Nc2nnc(C(F)(F)F)s2)[nH]c1=O`, the inhibition is reported as inactive: 17.8%. For `COc1ccc(N=Cc2cc(Cc3ccccc3Cl)cc([N+](=O)[O-])c2O)cc1OC`, the inhibition was inactive: 10.4%. For `O=C(NNC(=O)c1ccc2ccccc2c1O)c1ccccc1Cl`, the inhibition was active: 25.2%. With `CCCCn1c(/N=C/c2c[nH]c3ccccc23)nc2ccccc21` the inhibition was inconclusive: 25.6%. For `O=C1OC(/C(=C\Nc2ccccc2)[N+](=O)[O-])c2ccccc21` (stereo not drawn), the inhibition was inactive: 7.21%. `Cc1nnc(NC(=O)c2sc3ccccc3c2Cl)s1` was tested, and the inhibition was active: 27.1%. For `O=C(CNC(=O)c1ccccc1Br)N/N=C/c1ccccc1O`, the inhibition was inactive: -1.99%. In the case of `Fc1ccc(C2CC(c3cccs3)=NN2c2ccccc2)cc1` (stereo not drawn), the inhibition is reported as inconclusive: 24.9%. With `CC(C)(C)n1nnnc1CN(Cc1ccco1)Cc1cc2cc3c(cc2[nH]c1=O)OCO3` the inhibition was inconclusive: 21.8%. For `O=c1[nH]c2ccc(NC(=S)NCc3ccccc3)cc2[nH]1`, the inhibition was inactive: -4.38%. `N#CC1=C(SCC(=O)c2cc3ccccc3oc2=O)NC(=O)C(C#N)C12CCCC2` (stereo not drawn) was tested, and the inhibition was inconclusive: 27.6%. In the case of `O=c1cc2c(=O)oc3cc(O)c(O)oc3c2c(O)c1O`, the inhibition is reported as inconclusive: 25.3%. With `CCOc1ccc(C(=O)Nc2cc(NC(=O)c3ccc(OCC)c(Cl)c3)cc(C(=O)O)c2)cc1Cl` the inhibition was inconclusive: 25.7%. In the case of `O=C(OCc1c(Cl)cccc1Cl)c1cccnc1`, the inhibition is reported as inconclusive: 26.1%. In the case of `c1coc(-c2nc(-c3ccco3)c(-c3ccco3)nc2-c2ccco2)c1`, the inhibition is reported as inconclusive: 25.3%. For `CCCc1cc(=O)oc2c(CN3CCCC3)c(O)c(Cl)cc12`, the inhibition was inconclusive: 34.2%. In the case of `Cc1ccc(S(=O)(=O)Nc2ccc3oc(=O)sc3c2)c(C)c1`, the inhibition is reported as inactive: 21.7%. In the case of `O=S(=O)(Nc1nccs1)c1ccc(NCc2cc(Br)cc(Br)c2O)cc1`, the inhibition is reported as inconclusive: 25%. For `O=C(/C=C/c1cccs1)N1CCN(Cc2ccc3c(c2)OCO3)CC1`, the inhibition was inconclusive: 28%. With `O=C(CC1N=C2c3ccccc3N=C(SCc3ccc(Cl)cc3)N2C1=O)NCc1ccco1` (stereo not drawn) the inhibition was inconclusive: 27.4%. For `O=C(O)c1c(-c2ccccc2)c2oc3ccccc3c2[nH]c1=O`, the inhibition was inconclusive: 23.4%. In the case of `O=C(O)/C(=N/NC(=O)c1ccc(Cl)cc1)c1ccccc1`, the inhibition is reported as inconclusive: 23.9%. In the case of `CN1C(=O)/C(=C/c2ccc(O)c([N+](=O)[O-])c2)NC1=S`, the inhibition is reported as inconclusive: 24.5%. In the case of `COc1ccc(NC(=O)c2ccccc2C)c(OC)c1`, the inhibition is reported as inactive: 5.69%. `COc1cc(/C=C2\C(=O)NN(c3ccccc3)C2=O)cc([N+](=O)[O-])c1O` was tested, and the inhibition was inconclusive: 23.8%. In the case of `O=C(N/N=C/c1ccc([N+](=O)[O-])cc1)c1c[nH]c2ccccc12`, the inhibition is reported as inconclusive: 25.4%. For `Fc1ccc(N2N=C(c3cccs3)CC2c2ccccc2)cc1` (stereo not drawn), the inhibition was inconclusive: 26.7%. In the case of `CC(C)(C)NC(=O)C(c1ccncc1)N(C(=O)c1csnn1)C1CC1` (stereo not drawn), the inhibition is reported as inconclusive: 24%. In the case of `CC(Oc1ccc(Cl)cc1Cl)C(=O)Nc1ccc(S(=O)(=O)Nc2cnc3ccccc3n2)cc1` (stereo not drawn), the inhibition is reported as inconclusive: 37.8%. In the case of `Oc1ccc(C2=Nn3c(nnc3-c3ccco3)SC2)cc1O`, the inhibition is reported as active: 29.3%. With `Nc1c(S(=O)(=O)c2ccccc2)c2nc3ccccc3nc2n1Cc1ccco1` the inhibition was inactive: 21.5%. `CCOC(=O)c1c(NC(=O)C2C3C=CC(CC3)C2C(=O)O)sc(C)c1CC` (stereo not drawn) was tested, and the inhibition was inconclusive: 26.1%. In the case of `Cc1c(N=Cc2nc3ccccc3n2C)c(=O)n(-c2ccccc2)n1C`, the inhibition is reported as active: 27.3%. For `COCC1CCN(Cc2cn(-c3ccccc3F)nc2-c2cc(C)sc2C)CC1`, the inhibition was inactive: 0.56%. With `N=c1c2c(-c3ccccc3)c(-c3ccccc3)n(Cc3ccco3)c2ncn1Cc1ccco1` the inhibition was inconclusive: 27.5%. In the case of `O=c1c2ccccc2nc(-c2cccc(Cl)c2)n1O`, the inhibition is reported as active: 26.1%. With `COc1ccc(-c2nc(-c3ccccn3)nc(N3CCN(C)CC3)c2C#N)cc1` the inhibition was inconclusive: 27.2%. With `Cc1ccc(C)c(/C=C/C(=O)c2ccccc(=O)c2O)c1` the inhibition was inconclusive: 23.7%. For `CCOc1ccc(/C=C2\SC(=S)N(CCC(=O)O)C2=O)cc1`, the inhibition was inactive: 1.74%. In the case of `Cc1ccc(C2C3=C(Nc4[nH]n(-c5ccccc5)c(=O)c42)c2ccccc2C3=O)cc1` (stereo not drawn), the inhibition is reported as inconclusive: 43.1%. In the case of `C[N+]12CCCCC1C(COC(=O)c1ccc3c(c1)OCO3)CCC2` (stereo not drawn), the inhibition is reported as inconclusive: 37.8%. `CC1=NC(=O)C(N=Nc2ccccc2C(=O)O)N1c1ccccc1` (stereo not drawn) was tested, and the inhibition was inconclusive: 23.9%. In the case of `O=C1CC(c2ccco2)CC(O)=C1C=Nc1cc(Cl)cc(Cl)c1` (stereo not drawn), the inhibition is reported as inactive: -0.66%. In the case of `O=C(NC(=S)NNC(=O)c1cccs1)c1ccco1`, the inhibition is reported as inconclusive: 25.1%. In the case of `CCc1cc2ccccc2nc1SCC(=O)Nc1cc(OC)c(OC)cc1C(=O)O`, the inhibition is reported as inactive: 6.44%. With `CCSc1nnc(NC(=O)C2Cc3ccccc3CN2C(=O)c2ccco2)s1` (stereo not drawn) the inhibition was inconclusive: 27.5%. In the case of `O=C(O)CCCC(=O)Nc1ccc(Sc2ccc([N+](=O)[O-])cc2)cc1`, the inhibition is reported as inactive: 2.99%. `Cc1cc(F)ccc1S(=O)(=O)Nc1ncnc2scc(-c3ccc(F)cc3)c12` was tested, and the inhibition was inconclusive: 24.4%. `CC(C)C(NC(=O)COc1ccc2ccccc2c1)C(=O)N/N=C/C=C/c1ccccc1` (stereo not drawn) was tested, and the inhibition was inconclusive: 41.8%. With `COc1ccc(C2C=C(c3ccc(Br)cc3)Nc3nc(NS(C)(=O)=O)nn32)cc1` (stereo not drawn) the inhibition was inconclusive: 25.7%. For `COc1cc(/C=N/NC(=O)c2cc(-c3c(C)nn(-c4ccccc4)c3C)n[nH]2)ccc1O`, the inhibition was inconclusive: 25.9%. `c1ccc2c(c1)[nH]c1c(N3CCCC3)ncnc12` was tested, and the inhibition was inconclusive: 27.3%. `O=C(Cn1nnc(-c2ccccc2)n1)N/N=C/c1cc([N+](=O)[O-])ccc1O` was tested, and the inhibition was inconclusive: 26.9%. For `COc1cc(NC(=O)c2cccs2)c(OC)cc1NC(=O)CCn1nnc2ccccc21`, the inhibition was active: 25%. `Nc1nnnn1CC(=O)N/N=C/c1cc([N+](=O)[O-])ccc1O` was tested, and the inhibition was inconclusive: 27.2%. For `COc1nnc(OC)c2ccccc12`, the inhibition was inconclusive: 25.2%. For `COc1ccc(N=Cc2nc(-c3ccccc3)oc2OC(C)=O)cc1`, the inhibition was inconclusive: 23.6%. For `Cc1nnc(Sc2c(-c3ccccc3)c3ccc(Cl)cc3[nH]c2=O)s1`, the inhibition was inconclusive: 26.4%. With `CCNC(=O)C(=O)N/N=C/c1cc([N+](=O)[O-])ccc1O` the inhibition was inconclusive: 25.4%. In the case of `CCOC(=O)C1CCN(C(=O)Nc2ccc3nc(-c4ccco4)c(-c4ccco4)nc3c2)CC1`, the inhibition is reported as inconclusive: 23.8%. `COC(=O)C1=CNC=C(C(=O)OC)C1c1cccc(OC)c1` was tested, and the inhibition was inconclusive: 33.1%. `COc1cc(OC)cc(C(=O)Nc2ccc(-c3nc4ccccc4o3)c(O)c2)c1` was tested, and the inhibition was inconclusive: 26.2%. For `Cc1c(Cl)cccc1NC(=S)N1CCCN(Cc2ccc(F)cc2)C1`, the inhibition was inconclusive: 27.5%. `CNc1nnc(-c2ccc(N(C)C)cc2)s1` was tested, and the inhibition was inconclusive: 27.6%. In the case of `CCCn1c(=N)c(C(=O)NC2CCCC2)cc2c(=O)n3cccc(C)c3nc21`, the inhibition is reported as inconclusive: 28.1%. In the case of `Cc1cc(NC(=O)Cn2c(=O)n(Cc3ccccc3)c(=O)c3ccccc32)no1`, the inhibition is reported as active: 23.7%. With `CCn1nc([N+](=O)[O-])c(C(C#N)c2nc3cc(C(F)(F)F)ccc3s2)c(Cl)c1=O` (stereo not drawn) the inhibition was inconclusive: 26.4%. `O=C(N/N=C/c1ccc(Br)s1)c1ccncc1` was tested, and the inhibition was inconclusive: 27.8%. In the case of `O=C(NC(=S)NCCCN1CCOCC1)c1cccc2ccccc12`, the inhibition is reported as inconclusive: 26.1%. With `CCN(CC)c1nc2c3c(nc4c(c3c1C#N)CC(=O)N4c1ccc(Cl)cc1)NC(C)=N2` the inhibition was inconclusive: 27.6%. In the case of `Cc1ccc(NC(=O)c2cc([N+](=O)[O-])ccc2N2CCCC2)cc1`, the inhibition is reported as inactive: 9.65%. For `O=C(CC1N=C2c3ccccc3N=C(SCc3ccc(F)cc3)N2C1=O)NCc1ccco1` (stereo not drawn), the inhibition was inconclusive: 23.3%. `O=C(c1cnn(-c2ccccc2)c1-n1cccc1)N1CCN(C2CCCCC2)CC1` was tested, and the inhibition was inactive: 2.13%. `CCC(=O)Nc1ccc(-c2nc3ccccc3c(=O)o2)cc1` was tested, and the inhibition was inactive: 2.53%. In the case of `CCn1c2ccccc2c2nnc(SCC(=O)Nc3cc(C)on3)nc21`, the inhibition is reported as inactive: 1.82%. In the case of `CC(=O)Nc1ccc(S(=O)(=O)Nc2nc3ccccc3nc2Nc2ccc(N)cc2)cc1`, the inhibition is reported as inconclusive: 26.1%. With `COCc1c(Br)c(C)nc(OCC(=O)N/N=C/c2cc(C)n(-c3ccc([N+](=O)[O-])cc3)c2C)c1C#N` the inhibition was inactive: 12%. In the case of `CCNC(=S)NNC(=O)c1cc(Br)cs1`, the inhibition is reported as inconclusive: 24.9%. In the case of `COc1cc(/C=C2/C(=N)N3C=CSC3=NC2=O)ccc1OCCCOc1cc(C)ccc1C`, the inhibition is reported as inactive: -5.49%. In the case of `CC1(NC(=S)NCCCCCCNC(=S)NC2(C)CCS(=O)(=O)C2)CCS(=O)(=O)C1` (stereo not drawn), the inhibition is reported as inactive: -1.81%. In the case of `C/C(=N/NC(=O)c1cccs1)c1c(C)[nH]n(-c2nc3ccccc3s2)c1=O`, the inhibition is reported as inconclusive: 28.1%. For `COCCn1c(C)cc(C(=O)CSc2nc3ccccc3s2)c1C`, the inhibition was inconclusive: 23.3%. In the case of `O=C(N/N=C/c1cc(Cl)ccc1O)C(=O)Nc1ccccc1OC(F)(F)C(F)F`, the inhibition is reported as inconclusive: 38.2%. In the case of `Cc1ccccc1C(=O)NC1CCN(CC(=O)Nc2ccc3c(c2)OCO3)CC1`, the inhibition is reported as inactive: 10.9%. For `Oc1ccccc1C=Nc1ccccc1-c1nc2ccccc2[nH]1`, the inhibition was inconclusive: 23.3%.
